{"source": "patent US8969294B2", "about": "(Istituto di Recerche di Biologia Molecolare P. Angeletti …, priority 2008, dated 2015)", "assay": "general procedure: Boc solid-phase peptide synthesis; Boc Thr(OBzl) Pam resin; methoxybenzhydrylamine / 4-methylbenzhydrylamine (MBHA) resin; HBTU (FastBoc single coupling); DEPBT for lactam peptides; PyBOP for on-resin la", "details": "conjugation step", "key": {"[1]": {"details": "analytical RP-HPLC, Zorbax C8, 214 nm, MALDI or ESI MS"}}}
{"substance": "Glucagon Cys^17 Mal-PEG-5K", "values": [{"measurement": "final HPLC purity", "setting": "214 nm", "value": "approx. 90%"}]}
{"substance": "Glucagon Cys^29 Mal-PEG-5K", "values": [{"measurement": "final HPLC purity", "setting": "[1]", "value": "greater than 95%"}]}
{"substance": "Glucagon Cys^24 Mal-PEG-20K", "values": [{"measurement": "difficulty met", "value": "The product ratio had not significantly improved"}, {"measurement": "final HPLC purity", "setting": "[1]", "value": "˜90%"}]}
